The values that follow come from PubChem BioAssay AID2685 (National Center for Advancing Translational Sciences (NCATS), 2010).

The assay is described as follows: qHTS Assay for Lipid Storage Modulators in Drosophila S3 Cells.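 For cell number change: cells counted by Cell Tracker Red CMTPX staining in the red channel.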 The following applies: BODIPY lipid droplet fluorescence, 18-24 h; for cell number change: measured here: cell count max response, cells fed with added oleic acid. The gist of the method:
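Drosophila S3 cells loaded with oleic acid (400 uM, as added) and compounds at several concentrations; lipid droplets imaged by 488-nm laser-scanning cytometry, 500–530 nm intensity and object ratio to cell channel. Percent activity normalized to 20 uM Triacsin C.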

The mark [1] stands for this setting: measured here: cell number channel AC50, cells fed with added oleic acid.
[2] abbreviates: measured here: lipid fluorescence (Fed channel) AC50, cells fed with added oleic acid.

The other results are listed elsewhere or left out. Further columns of the screen follow, without active or inactive calls. Compounds called inactive in the main read-out are mostly missing here. Potencies come from curve fits of mixed quality, noted in brackets.

On to `NS(=O)(=O)c1ccc(CNC(=O)c2cc(=O)[nH]c3ccccc23)cc1`, for which the cell number change is 10.1%.
With `CC(=O)Nc1ccc(N2CCc3c(C)c(C#N)c4nc5ccccc5n4c32)cc1`, the cell number change was determined as 16.7%. In addition, under setting [1], the AC50 is 3.26 µM [rising, single point].
On to `Cc1nc2nc(SCc3ccc([N+](=O)[O-])cc3)[nH]c2cc1Br`, for which the cell number change is 20.9%.
On to `O=C(Nc1cccc2ncccc12)c1ccccc1Cl`, for which the cell number change was -9.52%. Further, the AC50 under setting [2] is 14.6 µM [rising, partial curve, poor fit].
As for `NC(=O)NCc1ccccc1F`, the cell number change was -11.8%. In addition, under setting [2], the AC50 is 2.91 µM [falling, full curve].
For `CC1CN(C(=S)NC(=O)C2CCCCC2)CC(C)O1` (stereo unspecified), the cell number change was -1.23%. For the same molecule, the AC50 under setting [2] was 32.6 µM [falling, single point].
As for `C/C(=N\NC(=O)Cn1ccc(C(F)(F)F)n1)c1ccco1`, the cell number change was -16.8%.
Take `O=C(O)c1cccc(CSc2nc(-c3ccccc3)cc(C(F)(F)F)n2)c1`: the cell number change turned out to be 22.8%. Besides, the AC50 under setting [2] was 29.1 µM [rising, single point].
`CCOc1ccc(Nc2ccc(S(=O)(=O)N3CCN(C)CC3)cc2[N+](=O)[O-])cc1OCC`: the cell number change was -30.4%. Besides, under setting [1], the AC50 was 29.1 µM [falling, partial curve]. Further, the AC50 under setting [2] was 0.731 µM [rising, single point].
With `CCCCNS(=O)(=O)c1ccc(NS(=O)(=O)c2c(C)cc(C)cc2C)cc1`, the cell number change came out at 59.4%. The AC50 under setting [1] was 16.4 µM [rising, single point]. The AC50 under setting [2] was 0.00461 µM [rising, full curve, poor fit].
For the molecule `CCOc1ccc(S(=O)(=O)NCCC(=O)NCC(c2ccc(F)cc2)N2CCOCC2)cc1` (stereo unspecified), the cell number change came to 30.9%. For the same molecule, the AC50 under setting [1] was 9.2 µM [rising, partial curve, poor fit].
For `Cc1ccc(NS(=O)(=O)c2ccc(C(=O)NCC(c3ccco3)N3CCCCC3)cc2)cc1` (stereo unspecified), the cell number change came to 178%. Further, the AC50 under setting [1] is 14.6 µM [rising, partial curve].
Turning to `NC(=O)/C(=C/c1ccc2c(c1)OCO2)NC(=O)c1ccco1`, the cell number change worked out at 0.279%. In addition, the AC50 under setting [2] is 10.3 µM [rising, partial curve, poor fit].
As to `O=c1c2[nH]c3ccc(F)cc3c2ncn1CCC1=CCCCC1`, the cell number change came to 5.03%. The AC50 under setting [2] is 3.26 µM [rising, partial curve].
With `O=C(CCN1C(=O)S/C(=C\c2ccccc2)C1=O)N1CCCCC1`, the cell number change was -5.13%.
For the molecule `CC(=O)c1c(C(C)=O)c(C)n(Cc2ccc(Cl)cc2)c1C`, the cell number change came to 2.07%.
For `Cc1cc(C)cc(S(=O)(=O)c2cnc3ccccc3n2)c1`, the cell number change was 17.1%. Further, the AC50 under setting [1] is 0.00461 µM [rising, full curve, poor fit].
`COc1cccc(CC(=O)OCC(=O)N(C)CC(=O)Nc2ccc(F)cc2)c1`: the cell number change was -32.5%. For the same molecule, the AC50 under setting [1] is 3.66 µM [falling, partial curve, poor fit]. The AC50 under setting [2] was 29.1 µM [falling, single point].
Take `CCCc1nn2c(=O)cc(CSCC(=O)Nc3nnc(C(C)C)s3)nc2s1`: the cell number change came out at 40.8%. Besides, the AC50 under setting [1] is 7.31 µM [rising, partial curve]. Further, the AC50 under setting [2] was 29.1 µM [rising, single point].
Turning to `C/C(N)=C(/C#N)C(=O)COC(=O)c1oc2ccccc2c1COC(C)C`, the cell number change was -24.7%. For the same molecule, the AC50 under setting [2] was 3.66 µM [falling, partial curve, poor fit].
On to `COc1cc(NC(=O)[C@H](C)NC(=O)N2CCn3c2nc2ccccc23)cc(OC)c1`, for which the cell number change is 9.67%.
For the molecule `CC(=O)c1c(C)oc2ccc(NS(=O)(=O)c3ccccc3)cc12`, the cell number change turned out to be 18.4%.
Still for that read-out and setting: in the case of `O=C(COC(=O)c1cccc(O)c1)Nc1nnc(-c2ccccc2)o1` it was 18.5%.
In the case of `Cc1cccc(Cn2c(NCCO)nc3c2c(=O)n(C)c(=O)n3C)c1`, the cell number change is -56.5%. In addition, the AC50 under setting [1] is 10.3 µM [falling, partial curve]. For the same molecule, the AC50 under setting [2] is 18.4 µM [falling, partial curve].
For the molecule `Cc1ccc(/C=N/NC(=O)Cc2c[nH]c3ccccc23)c(C)c1`, the cell number change was -27.1%. Further, the AC50 under setting [2] was 29.1 µM [falling, single point].
`COc1ccc(CCNC(=O)c2cc3sccc3n2C)cc1OC`: the cell number change is -30.4%. Besides, under setting [1], the AC50 is 29.1 µM [falling, single point]. Further, the AC50 under setting [2] was 29.1 µM [falling, single point].
With `COC(=O)C(CCSC)NC(=O)C(NC(=O)C1CCC(C)CC1)C(C)C` (stereo unspecified), the cell number change is 0.72%.
For the molecule `CC(=O)NC(Cc1cccc(F)c1)C(=O)NC1CCN(C(=O)Nc2ccc(C)cc2)CC1` (stereo unspecified), the cell number change was found to be 5.13%. Under setting [1], the AC50 is 3.26 µM [rising, partial curve, poor fit].
For `COc1ccc(N2CCN(CCCNC(=O)CCC(=O)N3CCOc4ccc(Cl)cc43)CC2)cc1`, the cell number change is 21.2%. In addition, under setting [2], the AC50 is 0.58 µM [rising, single point].
As for `COc1ccccc1N(C)S(=O)(=O)c1ccc(C)c(C(=O)NC(C)c2ccccn2)c1` (stereo unspecified), the cell number change is 30.7%. Also, the AC50 under setting [2] was 32.6 µM [rising, single point].
With `C=CCn1c(NCc2cc(Cl)ccc2O)nc2ccccc21`, the cell number change is -16.5%. For the same molecule, the AC50 under setting [2] is 23.1 µM [falling, single point].
With `O=C(Cc1ccc(NC2=NC3CS(=O)(=O)CC3S2)cc1)NCc1ccccc1Cl` (stereo unspecified), the cell number change was 22.5%. Further, the AC50 under setting [1] was 7.31 µM [rising, partial curve, poor fit].
`CCCS(=O)(=O)N1CCCC(C(=O)NCCCN2CCN(c3cccc(Cl)c3)CC2)C1` (stereo unspecified): the cell number change was -31.5%. For the same molecule, under setting [1], the AC50 was 29.1 µM [falling, single point]. Besides, under setting [2], the AC50 was 0.0291 µM [falling, full curve, poor fit].
On to `CCc1c(C(=O)NC2CCCC2)csc1C`, for which the cell number change amounted to 48%. In addition, the AC50 under setting [1] is 20.6 µM [rising, single point].
As to `CN1N=C(C(C)(C)C)CSC1=Nc1ccccc1`, the cell number change is -18.6%. For the same molecule, under setting [2], the AC50 is 29.1 µM [falling, single point].
`Cc1cccc(OCc2nnc(SC(C)C(=O)O)n2Cc2ccccc2)c1` (stereo unspecified): the cell number change is 16.6%. Further, the concentration at half-maximal activity (AC50) under setting [2] was 0.0259 µM [rising, full curve, poor fit].
On to `COC(=O)c1cc2ccccc2c(-c2c(OC)c(C(=O)OC)cc3ccccc23)c1OC`, for which the cell number change is -16.8%. In addition, the AC50 under setting [2] is 1.64 µM [falling, partial curve].
As for `CCCCCn1c(Br)nc2c1c(=O)n(CC(N)=O)c(=O)n2C`, the cell number change worked out at 2.53%. Under setting [2], the AC50 was 0.259 µM [rising, full curve].
`C=CCN(c1ccccc1)S(=O)(=O)c1cccc(C(=O)N2CC(C)CC(C)C2)c1` (stereo unspecified): the cell number change is -15.4%.
On to `COc1ccc(-c2nc(C#N)c(N3CCC(C(N)=O)CC3)o2)cc1`, for which the cell number change is 86%. Under setting [1], the AC50 was 29.1 µM [rising, single point].
As for `COc1ccccc1/C=N/Nc1nc(C)cc(C)n1`, the cell number change was -3.31%. In addition, under setting [2], the AC50 was 0.731 µM [rising, full curve, poor fit].
Take `CN(/N=C/c1cc(Cl)cc(Cl)c1O)c1c(Cl)cccc1[N+](=O)[O-]`: the cell number change was -41.2%. Moreover, the AC50 under setting [1] was 29.1 µM [falling, single point]. The AC50 under setting [2] was 29.1 µM [falling, single point].
As to `Cn1c(COc2ccccc2)nnc1SCc1nc2ccccc2[nH]1`, the cell number change was -10.5%. The AC50 under setting [2] was 0.0259 µM [falling, full curve, poor fit].
As to `O=C(C1CCN(S(=O)(=O)c2ccc(F)cc2)CC1)N1CCOCC1`, the cell number change was -8.93%.
For `CC1CN(S(=O)(=O)c2cn(C)c(=O)n(C)c2=O)CC(C)O1` (stereo unspecified), the cell number change was -33.1%. Besides, the AC50 under setting [1] is 0.146 µM [falling, full curve, poor fit]. For the same molecule, the AC50 under setting [2] was 4.11 µM [falling, full curve].
Consider `O=C(O)c1cc(=O)[nH]c2c(Cl)cccc12`, for which the cell number change is -57.8%. Under setting [1], the AC50 is 6.51 µM [falling, single point]. For the same molecule, the AC50 under setting [2] was 6.51 µM [falling, single point].
As for `COc1ccc(NC(=O)C2CCCN2C(=O)NCc2ccccc2)cc1` (stereo unspecified), the cell number change is -3.2%. Further, the AC50 under setting [2] is 4.11 µM [falling, single point].
Regarding `O=C(NCc1ccccn1)c1ccc(Cn2c(=S)[nH]c3ccccc3c2=O)cc1`, the cell number change was -65%. The AC50 under setting [1] was 29.1 µM [falling, single point]. The AC50 under setting [2] was 29.1 µM [falling, single point].
On to `CN(Cc1ccccc1)c1ccc(N2C(=O)CCCC2=O)cc1[N+](=O)[O-]`, for which the cell number change was -38%. Further, the AC50 under setting [1] was 0.206 µM [falling, full curve]. In addition, the AC50 under setting [2] was 0.92 µM [falling, full curve].
For `Cc1ccc(CCN2CC(C(=O)O)CC2=O)cc1` (stereo unspecified), the cell number change was -28.2%. Besides, under setting [2], the AC50 is 6.51 µM [rising, single point].
For the molecule `CC1Cc2cc(S(=O)(=O)CCC(=O)N3CCN(c4ccccc4)CC3)ccc2N1C(=O)C1CC1` (stereo unspecified), the cell number change stood at 18.7%. In addition, under setting [2], the AC50 is 7.31 µM [rising, partial curve].
Consider `CN(CCOC(=O)c1ccco1)Cc1ccccc1`, for which the cell number change stood at 4.28%.
`O=C(/C=C/c1ccccc1)OCC(=O)N1CCCC1`: the cell number change amounted to 16.7%. In addition, the AC50 under setting [2] was 2.91 µM [rising, partial curve, poor fit].
On to `O=C(N/N=C/c1cccnc1)c1cc2ccccc2o1`, for which the cell number change was -16.4%. Also, under setting [2], the AC50 was 2.06 µM [falling, partial curve].
Turning to `CCOc1ccc(-n2nc3c(=O)[nH]nc(C)c3c2C)cc1`, the cell number change was found to be 16.7%. For the same molecule, the AC50 under setting [2] is 11.6 µM [rising, partial curve, poor fit].
Turning to `O=C(Nc1ccc(F)cc1)c1ccc(S(=O)(=O)NCC2CCCO2)cc1` (stereo unspecified), the cell number change was -12.6%. Moreover, the half-maximal activity concentration (AC50) under setting [2] is 0.13 µM [falling, full curve, poor fit].
In the case of `OCCCCNCc1cc(Br)ccc1OCc1ccccc1`, the cell number change is -19.2%. Also, under setting [2], the AC50 is 6.51 µM [rising, single point].
`Cn1cccc1/C=C1\SC(=O)N(c2ccc(O)cc2)C1=O`: the cell number change came out at 15%. Besides, the AC50 under setting [1] was 0.164 µM [rising, full curve, poor fit].
As for `Cc1ccc2nc(-c3ccc(NC(=O)CN4C(=O)c5ccccc5C4=O)cc3)sc2c1`, the cell number change was -46.4%. Besides, under setting [1], the AC50 was 9.2 µM [falling, partial curve]. Under setting [2], the half-maximal activity concentration (AC50) was 10.3 µM [falling, partial curve].
Take `Cc1cc(C)c(S(=O)(=O)N2CCC(C(=O)NCc3ccncc3)CC2)c(C)c1`: the cell number change is 6.18%. In addition, the AC50 under setting [2] was 1.3 µM [rising, partial curve].

As usually defined, the AC50 is the midpoint of the concentration-response curve, whichever way the signal moves. A higher AC50 goes with weaker potency.
